Measurements reported in PubChem BioAssay AID686938 (Drosophila RNAi Screening Center, 2013).

Screen: 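Fly genes required for calcium entry once internal stores are emptied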 (primary screen)
System: Drosophila S2R+ cells
Reagents: long dsRNA against Drosophila genes, about 0.25 µg dsRNA per well, roughly 10,000 cells
Duration: 5 days of knock-down before the calcium assay
Conditions: thapsigargin (SERCA pump blocker) to empty calcium stores; entry signal taken 4 min after adding it
Measurement: 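Per-well fluo-4 fluorescence in two replicates, unnormalised, measured in resting cells and 4 min after store depletion by the SERCA blocker thapsigargin; ratio of the two present in few wells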
Direction: calcium entry signal: higher = stronger calcium signal after store depletion; resting calcium signal: higher = higher resting calcium signal
Hit rule: 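Called when the plate z-score of the entry-to-rest ratio, mean of duplicates, falls below −3; wells with low overall dye signal (Fmax z below −2) or more than five off-targets excluded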
Meaning of the calls: active = strongly reduced calcium entry; inactive = no strong reduction
The deposit covers about 23,000 reagents; shown is an unselected part of those that have a named target and a result. Over the whole deposit, 75 (0.33%) got an active call. 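Raw plate signals without normalisation; calls rest on plate z-scores that were not deposited; ratio present for only 364 wells.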 The numbers tell different reagents against one gene apart. Names joined by + are all predicted targets of the reagent. Not given: the dose of the treatment.

no.	predicted target	reagent no.	calcium entry signal, replicate 1 (fluorescence units)	calcium entry signal, replicate 2 (fluorescence units)	resting calcium signal, replicate 1 (fluorescence units)	resting calcium signal, replicate 2 (fluorescence units)	call
1	Sik3	1	5.81e7	6.80e7	2.48e7	3.09e7	inactive
2	Sik3	2	3.40e7	3.77e7	1.67e7	1.64e7	inactive
3	ox	1	3.95e7	3.23e7	2.12e7	1.47e7	inactive
4	CG10587	1	3.38e7	5.10e7	1.71e7	2.36e7	inactive
5	CG30046	1	2.93e7	3.53e7	1.48e7	1.67e7	inactive
6	CG30089	1	3.08e7	3.51e7	1.44e7	1.79e7	inactive
7	CG30089	2	2.57e7	2.35e7	1.81e7	1.69e7	inactive
8	CG30089	3	3.97e7	3.90e7	1.96e7	1.75e7	inactive
9	CG30089	4	3.49e7	3.38e7	1.88e7	1.66e7	inactive
10	CG30089	5	3.57e7	3.54e7	2.18e7	1.76e7	inactive
11	CG14441	1	3.52e7	3.61e7	1.79e7	1.86e7	inactive
12	CG30379	1	3.17e7	5.33e7	1.57e7	2.18e7	inactive
13	CG3199	1	2.13e7	3.61e7	1.06e7	5.49e7	inactive
14	Sr-CIII	1	2.98e7	3.33e7	1.52e7	1.61e7	inactive
15	SMSr	1	5.65e7	3.53e7	3.60e7	1.64e7	inactive
16	SMSr	2	2.68e7	4.57e7	1.27e7	1.95e7	inactive
17	Pisd	1	3.28e7	3.30e7	1.70e7	1.48e7	inactive
18	CG3225	1	3.19e7		1.80e7		inactive
19	CG12320	1	3.34e7	3.73e7	4.19e7	1.57e7	inactive
20	Upf3	1	3.23e7		1.61e7		inactive
21	CG8908	1	5.45e7	4.35e7	2.49e7	2.26e7	inactive
22	FipoQ	1	3.27e7	3.19e7	1.93e7	1.54e7	inactive
23	Obp56d	1	5.31e7	4.77e7	2.16e7	2.20e7	inactive
24	CG15553	1	4.14e7	4.94e7	1.91e7	2.06e7	inactive
25	D2hgdh	1	3.22e7	3.81e7	1.47e7	1.84e7	inactive
26	Lcp65Ab2 + Lcp65Ab1	1	2.91e7	5.28e7	1.44e7	2.09e7	inactive
27	Lcp65Ab2 + Lcp65Ab1	2	2.74e7	4.05e7	1.34e7	1.75e7	inactive
28	CG5418	1	4.48e7	2.78e7	1.85e7	1.29e7	inactive
29	Ir11a	1	4.04e7	3.42e7	1.85e7	1.63e7	inactive
30	aop	1	2.54e7	2.71e7	1.48e7	1.41e7	inactive
31	aop	2	4.53e7	4.41e7	2.28e7	1.96e7	inactive
32	CG9706	1	2.44e7	3.20e7	1.35e7	2.43e7	inactive
33	Fer1	1	4.19e7	4.23e7	1.90e7	1.96e7	inactive
34	Fer1	2	4.68e7	5.30e7	2.19e7	2.26e7	inactive
35	CG31805	1	2.64e7	3.40e7	1.52e7	1.66e7	inactive
36	Nnk	1	2.74e7	3.28e7	3.73e7	1.51e7	inactive
37	CG2861	1	3.71e7	4.65e7	1.86e7	2.19e7	inactive
38	CG10804	1	4.97e7	5.05e7	2.17e7	2.25e7	inactive
39	RecQ5	1	3.14e7	4.72e7	1.56e7	2.93e7	inactive
40	nbs	1	3.29e7	4.79e7	1.62e7	2.00e7	inactive
41	CG8839	1	3.07e7	4.10e7	1.43e7	1.90e7	inactive
42	Rab9Db + Rab9Fa	1	3.76e7	3.86e7	1.76e7	1.85e7	inactive
43	CG5984	1	3.91e7	6.15e7	1.90e7	2.56e7	inactive
44	SiaT	1	4.64e7	3.99e7	2.21e7	1.92e7	inactive
45	CG10903	1	4.14e7	2.56e7	2.31e7	1.40e7	inactive
46	CtsK1	1	5.26e7	4.74e7	2.16e7	2.00e7	inactive
47	robl37BC	1	6.81e7	4.05e7	3.23e7	1.69e7	inactive
48	FoxK	1	3.95e7	3.06e7	2.48e7	1.37e7	inactive
49	Snr1	1	2.42e7	3.23e7	1.30e7	1.78e7	inactive
50	CG31715	1	2.75e7	3.05e7	1.51e7	1.49e7	inactive
51	Mtp	1	3.35e7		1.58e7		inactive
52	wupA	1	3.88e7	3.91e7	1.92e7	1.79e7	inactive
53	wupA	2	2.83e7	2.96e7	1.40e7	1.29e7	inactive
54	tipE	1	4.38e7	4.17e7	3.17e7	1.82e7	inactive
55	Nepl10	1	3.12e7	4.79e7	1.50e7	2.23e7	inactive
56	CG31924	1	4.62e7	5.12e7	2.04e7	2.36e7	inactive
57	CG17230	1	1.97e7	3.05e7	8.78e6	1.46e7	inactive
58	CG5860	1	4.08e7	4.48e7	1.99e7	8.29e7	inactive

Part of the list above, set out differently.
aop #2
- calcium entry signal, replicate 1 (fluorescence units): 4.53e7
- calcium entry signal, replicate 2 (fluorescence units): 4.41e7
- resting calcium signal, replicate 1 (fluorescence units): 2.28e7
- resting calcium signal, replicate 2 (fluorescence units): 1.96e7
- call: inactive

CG9706
- calcium entry signal, replicate 1 (fluorescence units): 2.44e7
- calcium entry signal, replicate 2 (fluorescence units): 3.20e7
- resting calcium signal, replicate 1 (fluorescence units): 1.35e7
- resting calcium signal, replicate 2 (fluorescence units): 2.43e7
- call: inactive

Fer1 #1
- calcium entry signal, replicate 1 (fluorescence units): 4.19e7
- calcium entry signal, replicate 2 (fluorescence units): 4.23e7
- resting calcium signal, replicate 1 (fluorescence units): 1.90e7
- resting calcium signal, replicate 2 (fluorescence units): 1.96e7
- call: inactive

Fer1 #2
- calcium entry signal, replicate 1 (fluorescence units): 4.68e7
- calcium entry signal, replicate 2 (fluorescence units): 5.30e7
- resting calcium signal, replicate 1 (fluorescence units): 2.19e7
- resting calcium signal, replicate 2 (fluorescence units): 2.26e7
- call: inactive

CG31805
- calcium entry signal, replicate 1 (fluorescence units): 2.64e7
- calcium entry signal, replicate 2 (fluorescence units): 3.40e7
- resting calcium signal, replicate 1 (fluorescence units): 1.52e7
- resting calcium signal, replicate 2 (fluorescence units): 1.66e7
- call: inactive

Nnk
- calcium entry signal, replicate 1 (fluorescence units): 2.74e7
- calcium entry signal, replicate 2 (fluorescence units): 3.28e7
- resting calcium signal, replicate 1 (fluorescence units): 3.73e7
- resting calcium signal, replicate 2 (fluorescence units): 1.51e7
- call: inactive

CG2861
- calcium entry signal, replicate 1 (fluorescence units): 3.71e7
- calcium entry signal, replicate 2 (fluorescence units): 4.65e7
- resting calcium signal, replicate 1 (fluorescence units): 1.86e7
- resting calcium signal, replicate 2 (fluorescence units): 2.19e7
- call: inactive

CG10804
- calcium entry signal, replicate 1 (fluorescence units): 4.97e7
- calcium entry signal, replicate 2 (fluorescence units): 5.05e7
- resting calcium signal, replicate 1 (fluorescence units): 2.17e7
- resting calcium signal, replicate 2 (fluorescence units): 2.25e7
- call: inactive
